{"sequences": {"note": "Chains of the proteins cited; added tags and fusions are not shown.", "UniProt Q86VP6": "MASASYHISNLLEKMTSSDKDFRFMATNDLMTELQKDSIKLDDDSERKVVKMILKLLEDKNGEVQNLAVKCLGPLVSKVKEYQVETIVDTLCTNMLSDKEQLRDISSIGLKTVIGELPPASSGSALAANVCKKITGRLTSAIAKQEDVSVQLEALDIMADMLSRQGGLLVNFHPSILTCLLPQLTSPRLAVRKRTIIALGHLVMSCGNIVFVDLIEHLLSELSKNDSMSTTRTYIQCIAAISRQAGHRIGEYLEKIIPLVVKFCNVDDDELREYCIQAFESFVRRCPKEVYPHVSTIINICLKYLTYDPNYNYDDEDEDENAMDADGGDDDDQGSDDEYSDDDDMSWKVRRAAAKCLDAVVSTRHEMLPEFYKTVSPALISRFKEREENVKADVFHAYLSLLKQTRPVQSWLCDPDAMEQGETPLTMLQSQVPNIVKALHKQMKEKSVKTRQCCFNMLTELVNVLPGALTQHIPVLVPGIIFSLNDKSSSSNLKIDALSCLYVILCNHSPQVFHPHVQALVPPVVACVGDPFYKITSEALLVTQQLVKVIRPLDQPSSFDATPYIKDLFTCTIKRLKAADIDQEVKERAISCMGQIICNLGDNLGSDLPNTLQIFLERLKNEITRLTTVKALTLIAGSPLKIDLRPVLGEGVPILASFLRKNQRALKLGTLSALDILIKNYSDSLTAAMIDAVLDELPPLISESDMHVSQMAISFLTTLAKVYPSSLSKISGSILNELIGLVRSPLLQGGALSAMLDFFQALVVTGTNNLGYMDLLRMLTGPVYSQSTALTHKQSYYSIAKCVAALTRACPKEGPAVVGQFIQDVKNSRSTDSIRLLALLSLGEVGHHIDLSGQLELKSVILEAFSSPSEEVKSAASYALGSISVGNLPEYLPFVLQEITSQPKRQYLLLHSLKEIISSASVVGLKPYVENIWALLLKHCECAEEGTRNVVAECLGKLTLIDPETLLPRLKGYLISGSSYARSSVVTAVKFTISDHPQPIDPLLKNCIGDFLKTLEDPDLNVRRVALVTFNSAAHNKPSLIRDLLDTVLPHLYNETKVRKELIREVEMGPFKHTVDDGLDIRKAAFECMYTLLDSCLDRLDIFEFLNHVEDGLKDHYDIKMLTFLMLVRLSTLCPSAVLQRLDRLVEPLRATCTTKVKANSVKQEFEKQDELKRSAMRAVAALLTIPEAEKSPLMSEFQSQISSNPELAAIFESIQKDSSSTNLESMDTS"}, "source": "paper PMC11078946", "target": "GST-OspG L99R/P102E (S. flexneri 2a strain 2457T) (UniProt Q99PZ6)", "assay": "pull-down; glutathione resins coated with purified GST-OspG, its variants or GST alone, incubated with lysates of Flag-CAND1-expressing 293T cells; eluates blotted with anti-Flag and anti-GST; only the target purified", "note": "These are yes or no findings as the source states them, for the method shown. In cells and extracts the contact can be indirect. Some binding calls cover weakened binding; strength is not graded here."}
{"substance": "Flag-CAND1 (from UniProt Q86VP6 1-1230)", "values": [{"measurement": "binding", "value": "binds"}]}
